# Reference: US9493466B2, “Treatment of cancer with TOR kinase inhibitors” (Signal Pharmaceuticals, LLC, priority 2011, dated 2016)
# At least one compound was matched to its structure with a doubt left.
# Experiments:
# HCT-116 tumors = experiment: HCT-116 human colorectal cancer xenograft model; format: in vivo, SCID mice; conditions: 4 mg/kg Q3D IP, last day
# Protocol: HCT-116 Human Colorectal Cancer Xenograft Model. The HCT-116 cell line was obtained from American Tissue Culture Collection (ATCC) (Gaithersberg, Md.) and grown in growth medium containing McCoy's 5A medium with 2 mM L-glutamine adjusted to contain 90% and 10% of fetal bovine serum. The cells were detached from tissue culture flasks using trypsin-EDTA. After centrifugation, the cell pellets were suspended in phosphate buffered saline (PBS) and counted using a hemocytometer. Matrigel was added to the cell suspension to adjust the final volume to 2×10^6 cells/0.1 mL of 1:1 mixture of Matrigel: PBS.
# Female 6-8 weeks old CB17 SCID mice were obtained from Charles River Laboratories at a body weight of 17-20 g. […] The tumor of each animal was measured and animals with tumors ranging between 100 and 150 mm^3 were included in the study. […]
# Tumor volumes were determined prior to the initiation of treatment and were considered as the starting volumes. Thereafter, tumors were measured twice a week for the duration of the study. The long and short axes of each tumor were measured using a digital caliper in millimeters. The tumor volumes were calculated using the formula: width^2×length/2 (using long [L] and short [W] axes of tumors). […] Tumor volume data are expressed as mean±SE. […]
# Initial body weights were recorded prior to the initiation of treatment using a digital scale. […]
# U87MG tumors [1] = experiment: U87MG human glioblastoma xenograft model (Compound 2); format: in vivo, SCID mice; conditions: 4 mg/kg Q3D IP
# Protocol: (§1) U87MG Human Glioblastoma Xenograft Model (Compound 2). Efficacy Studies: Groups of female SCID mice bearing U87MG tumors (n=8-10/group) were dosed orally with vehicle or Compound 2 (doses ranged between 0.05 and 1 mg/kg) throughout the study, starting when tumor volumes reached approximately 170-180 mm^3. The twice daily (BID) dose groups were dosed with a 10-hour separation between morning and evening doses. In the positive control group, rapamycin was administered every third day (Q3D) via intraperitoneal (IP) route. At the end of each study, plasma and/or tumor samples were collected.
# Cell Line and Culture. […] After centrifugation, the cell pellets were suspended in PBS and cells counted using a hemocytometer. […]
# Randomization of Animals. […] The tumor of each animal was measured and animals with tumors ranging between 170 and 180 mm^3 were included in the study. […]
# (§2) Tumor Measurements. Tumor volumes were determined prior to the initiation of treatment and were considered as the starting volumes. Thereafter, tumors were measured twice a week for the duration of the study. The long and short axes of each tumor were measured using a digital caliper in millimeters. Tumor volumes were calculated using the formula: width^2×length/2. […]
# (§3) Body Weight Measurements. Initial body weights were recorded prior to the initiation of treatment using a digital scale. […]
# U87MG tumors [2] = experiment: U87MG human glioblastoma xenograft model (Compound 1); format: in vivo, SCID mice; conditions: 4 mg/kg Q3D IP
# Protocol: as §1, with “1).” for “2).”, “Compound” for “Compound 2 (doses ranged between 0.05 and”, “1” for “1 mg/kg)”, “200” for “170-180”, “Q3D” for “every third day (Q3D)”
# Cell Line and Culture. […] After centrifugation, the cell pellets were suspended in phosphate buffered saline (PBS) and counted using a hemocytometer. […]
# Randomization of Animals. […] The tumor of each animal was measured and animals with tumors ranging between 175-250 mm^3 were included in the study. […]
# as §2
# Tumor Growth Delay (TGD) Calculations. […] The TGD was calculated from the data plotted in a graph format.
# as §3
# U87MG tumors [3] = experiment: Apoptosis TUNEL assay in U87MG tumors; format: in vivo, mice; conditions: 4 mg/kg Q3D for 4 days
# Protocol: Mechanism of action studies. To determine the mechanism of action of Compound 1, mice bearing U87MG tumors of approximately 500 mm^3 were dosed orally with vehicle or Compound 1 at 5 mg/kg BID for 4 days. The positive control, rapamycin, was dosed at 4 mg/kg Q3D for 4 days. Two hours after the 7th dose of Compound 1 on day 4, animals were euthanized and tumors were dissected out and snap frozen in liquid nitrogen. In the rapamycin-treated group tumors were collected at 2 hour after the 2nd dose on day 4. The tumors were processed for immunohistochemistry (IHC) or TUNEL.
# Apoptosis TUNEL Assay. To detect apoptotic cells, fluorescence in situ cell death detection kit (Roche Biosciences) was used. […]
# Quantitation of Immunohistochemistry. The tissues sections processed for apoptosis or immunostained for proliferating cells (Ki67) or blood vessels were quantitated using Metamorph software. Using 20× objective, 5 different fields from each section, 2-4 sections from each tumor, and 3-4 tumors from each treatment group or control were used for quantitation. The area of interest was expressed as the percent threshold area of the total area.
# Apoptotic Activity of Compound 1. […] FITC-labeled nucleotides (representing the cells with DNA strand breaks, a hallmark of apoptosis) can be detected using a microscope equipped with a fluorescence attachment.
compound,measurement,setting,value
"CO[C@H]1C[C@@H]2CC[C@@H](C)[C@@](O)(O2)C(=O)C(=O)N2CCCC[C@H]2C(=O)O[C@H]([C@H](C)C[C@@H]2CC[C@@H](O)[C@H](OC)C2)CC(=O)[C@H](C)/C=C(\C)[C@@H](O)[C@@H](OC)C(=O)[C@H](C)C[C@H](C)/C=C/C=C/C=C/1C [rapamycin, reference compound]",tumor size compared with vehicle,HCT-116 tumors,significantly (p<0.001) smaller tumors
same,tumor size compared with vehicle,U87MG tumors [1]; Day 34,significantly (p<0.001) smaller tumors
same,tumor inhibition compared to vehicle,U87MG tumors [1]; Day 35 (p<0.001),significantly inhibited tumors
same,tumor size compared with vehicle,U87MG tumors [2]; Day 31,significantly (p<0.001) smaller tumors
same,tumor growth,U87MG tumors [2]; day 34 (p<0.001),significantly inhibited
same,"number of TUNEL-positive cells, relative to Compound 1-treated tumors",U87MG tumors [3],comparable
